From the supplement of paper PMC9938546 come the findings set out here.

Molecules are shown by their SMILES. Counter-ions that a name gives are not always drawn. The list shows a part of the results. Baselines shift from plate to plate; read single values as rough.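 HCT116-GFP is a human colorectal cancer cell line that carries a KRAS mutation, is microsatellite-unstable and always makes green fluorescent protein; the immune cells came from healthy donors. Live-cell imaging of the green signal stood in for cancer cell survival, and activated immune cells alone cut survival to about half.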

This assay relates to HCT116-GFP. In words: HCT116-GFP viability (GFP intensity) relative to untreated HCT116-GFP monoculture control, co-culture with activated PBMCs; higher = less cancer cell killing. The note with it: culture: co-culture with anti-CD3/IL2 activated PBMCs 1:1; 10 µM; 72 h.
Consider `C[C@]12CCC(=O)C(O)=C1CC[C@@H]1[C@@H]2CC[C@]2(C)C(=O)CC[C@@H]12` [Formestane], for which the HCT116-GFP viability worked out at 59.8%.
In the case of `C[N+]12CCC(CC1)C(OC(=O)C(O)(c1ccccc1)c1ccccc1)C2` (stereo not given) [Clidinium bromide], the HCT116-GFP viability came to 80.1%.
As to `C[C@@]12N[C@@H](Cc3ccccc31)c1ccccc12` [(-)-MK 801 hydrogen maleate], the HCT116-GFP viability came to 63.8%.
Compound `CC(=O)OCC1=C(C(=O)O)N2C(=O)[C@@H](N)[C@H]2SC1` [Cephalosporanic acid, 7-amino] showed an HCT116-GFP viability of 60.4%.
`CO[C@]12C[C@@H](COC(=O)c3cncc(Br)c3)CN(C)[C@@H]1Cc1cn(C)c3cccc2c13` [Nicergoline] had an HCT116-GFP viability of 45.5%.
In turn, `CC(C)C[C@H](CN)CC(=O)O` [Pregabalin] returned an HCT116-GFP viability of 35.3%.
As for `CC(C)(C)NCC(O)c1ccccc1Cl` (stereo not given) [Tulobuterol], the HCT116-GFP viability came out at 35.9%.
In the case of `C[C@]12Cc3c[nH]nc3C[C@@H]1CC[C@@H]1[C@@H]2CC[C@@]2(C)[C@H]1CC[C@]2(C)O` [Stanozolol], the HCT116-GFP viability turned out to be 65.6%.
In turn, `C[C@@H]1CC[C@H]2[C@@H](C)C(=O)O[C@@H]3O[C@@]4(C)CC[C@@H]1[C@]32OO4` [Artemisinin] returned an HCT116-GFP viability of 33.9%.
With `CCC1(c2cccc(O)c2)CCCCN(C)C1` (stereo not given) [Meptazinol hydrochloride], the HCT116-GFP viability was determined as 46%.
`COc1cc([C@@H]2c3cc4c(cc3[C@H](O)[C@H]3COC(=O)[C@H]23)OCO4)cc(OC)c1OC` [Podophyllotoxin] displayed an HCT116-GFP viability of 8.6%.
As for `CCN(C(C)=O)c1cccc(-c2ccnc3c(C#N)cnn23)c1` [Zaleplon], the HCT116-GFP viability was 57.9%.
With `NCCc1c[nH]c2ccc(O)cc12` [Serotonin hydrochloride] the figure was 49.2%; with `CCC(COC(=O)c1cc(OC)c(OC)c(OC)c1)(c1ccccc1)N(C)C` (stereo not given) [Trimebutine], 37.4%; with `NC(=O)C[S+]([O-])C(c1ccccc1)c1ccccc1` (stereo not given) [Modafinil], 47.9%.
In turn, `CN1CCN(C(=O)OC2c3nccnc3C(=O)N2c2ccc(Cl)cn2)CC1` (stereo not given) [Zopiclone] returned an HCT116-GFP viability of 44.4%.
`Clc1ccc(C(OCCN2CCCCC2)c2ccccc2)cc1` (stereo not given) [Cloperastine hydrochloride] showed an HCT116-GFP viability of 95.2%.
Next, `C[C@]12CC[C@H](O)C[C@H]1CC[C@@H]1[C@@H]2C[C@@H](O)[C@]2(C)[C@@H](C3=CC(=O)OC3)CC[C@]12O` [Digoxigenin]: 3.03%; `CC(Cc1ccccc1)NCCC(c1ccccc1)c1ccccc1` (stereo not given) [Prenylamine lactate]: 27.2%; `CC(=O)NC1CCSC1=O` (racemic) [N-Acetyl-DL-homocysteine Thiolactone]: 67.4%.
`Cc1cccc(C)c1NC1=NCCCS1` [Xylazine] registered an HCT116-GFP viability of 30.3%.
The compound `NC(=O)CN1CCCC1=O` [Piracetam] had an HCT116-GFP viability of 42.5%.
Consider `O=P1(NCCCl)OCCCN1CCCl` (stereo not given) [Ifosfamide], for which the HCT116-GFP viability worked out at 80.3%.
Compound `CC(C)c1c(CN(C)C(C)Cc2ccccc2)n(C)n(-c2ccccc2)c1=O` (stereo not given) [Famprofazone] gave an HCT116-GFP viability of 66.9%.
For the compound `C=C(C)[C@@H]1[C@H]2OC(=O)[C@@H]1[C@]1(O)C[C@H]3O[C@]34C(=O)O[C@H]2[C@]14C` [Picrotoxinin], the HCT116-GFP viability amounted to 76.9%.
In turn, `CC(=O)OCC(=O)[C@H]1CC[C@H]2[C@@H]3CC[C@H]4C[C@H](O)CC[C@]4(C)[C@H]3C(=O)C[C@]12C` [Alfadolone acetate] displayed an HCT116-GFP viability of 42.5%.
On to `C[C@]12CC[C@@H]3c4ccc(OC(=O)N(CCCl)CCCl)cc4CC[C@H]3[C@@H]1CC[C@@H]2O` [Estramustine], for which the HCT116-GFP viability came out at 10.8%.
For the compound `CN(C)C(=O)Oc1cc(OC(=O)N(C)C)cc(C(O)CNC(C)(C)C)c1` (stereo not given) [Bambuterol hydrochloride], the HCT116-GFP viability is 33.9%.
With `CCn1cc(C(=O)O)c(=O)c2cc3c(cc21)OCO3` [Oxolinic acid] the figure was 44%; with `C[C@]12CC[C@H](O)C[C@@H]1CC[C@@H]1[C@@H]2CC[C@]2(C)C(=O)CC[C@@H]12` [Epiandrosterone], 49.6%.
With `CCC1(c2ccc(N)cc2)CCC(=O)NC1=O` (stereo not given) [Glutethimide, para-amino] the figure was 44.3%.
With `CCN(C)C(=O)Oc1cccc([C@H](C)N(C)C)c1` [Rivastigmine] the figure was 34.4%.
In the case of `CC[C@@]1([C@@H]2O[C@@H]([C@H]3O[C@@](O)(CO)[C@H](C)C[C@@H]3C)C[C@@H]2C)CC[C@H]([C@]2(C)CC[C@]3(C[C@H](O)[C@@H](C)[C@@H]([C@@H](C)[C@@H](OC)[C@H](C)C(=O)O)O3)O2)O1` [Monensin sodium salt], the HCT116-GFP viability was 20.3%.
Next, `CN1[C@@H]2CC[C@H]1C[C@@H](OC1c3ccccc3CCc3ccccc31)C2` [Deptropine citrate]: 45.9%; `NCC(O)c1ccc(O)cc1` (racemic) [(+,-)-Octopamine hydrochloride]: 71.2%.
Next, `COc1ccc(Cc2nccc3cc(OC)c(OC)cc23)cc1OC` [Papaverine hydrochloride]: 34.2%; `CCC1(CC)C(=O)C=CNC1=O` [Pyrithyldione]: 73.9%; `CC(C)(C)NCC(O)c1cc(Cl)c(N)c(Cl)c1` (stereo not given) [Clenbuterol hydrochloride]: 64.6%.
Compound `Fc1ccc(C(OCCN2CCN(CCCc3ccccc3)CC2)c2ccc(F)cc2)cc1` registered an HCT116-GFP viability of 7.15%.
`COc1ccc(CCN2CCC(Nc3nc4ccccc4n3Cc3ccc(F)cc3)CC2)cc1` [Astemizole] registered an HCT116-GFP viability of 1.91%.
Take `CC(=O)O[C@H]1C[C@H](O[C@H]2[C@@H](O)C[C@H](O[C@H]3[C@@H](O)C[C@H](O[C@H]4CC[C@@]5(C)[C@H](CC[C@@H]6[C@@H]5C[C@@H](O)[C@]5(C)[C@@H](C7=CC(=O)OC7)CC[C@]65O)C4)O[C@@H]3C)O[C@@H]2C)O[C@H](C)[C@H]1O[C@@H]1O[C@H](CO)[C@@H](O)[C@H](O)[C@H]1O` [Lanatoside C]: the HCT116-GFP viability came out at 2.84%.
`C[N+]1([O-])[C@@H]2C[C@@H](OC(=O)[C@H](CO)c3ccccc3)C[C@H]1[C@@H]1O[C@@H]12` (stereo not given in full) [Scopolamin-N-oxide hydrobromide] returned an HCT116-GFP viability of 50%.
On to `C[C@]12N[C@H](Cc3ccccc31)c1ccccc12` [Dizocilpine maleate], for which the HCT116-GFP viability was found to be 49.4%.
Next, `CCN(CC)C(C)C(=O)c1ccccc1` (stereo not given) [Amfepramone hydrochloride]: 55.7%; `O[C@@H]1CCCC[C@H]1N1CCC(c2ccccc2)CC1` [L(-)-vesamicol hydrochloride]: 75%.
